{
  "source": "patent US20140134197A1",
  "about": "“Mimotopic Peptides for the Diagnosis and Treatment of Multiple sclerosis” (priority 2011, published 2014)",
  "origin": "cited, not measured here",
  "conditions": "Tables 3a-3e; from cited literature; cited from earlier work",
  "note": "At least one structure is not confirmed: it was looked up by name or label, or the drawing left a doubt.",
  "data": [
    {"smiles": "Cc1cc2c(s1)Nc1ccccc1N=C2N1CCN(C)CC1", "note": "[Olanzapine]", "values": [
      {"measurement": "Immunosuppressive Effects", "result": "Suppress Tumor Necrosis Factor,"}
    ]}
  ]
}
